Common to all, as to test: DAPPL (digital affinity profiling via proximity ligation, sequencing)
Common to all, as to details: 10 mM Tris-HCl pH 7.5, 50 mM NaCl, 1 mM DTT, 4% glycerol, room temperature, 30 min; GST-TFs on glutathione beads, 16-mer random dsDNA library, 0.1% …; high values mean tight binding; double strand, one strand shown; scale: fold enrichment (6-mer frequency, TF over GST control)

The target of one test is T1, GABPA (UniProt Q06546).
T1 sequence: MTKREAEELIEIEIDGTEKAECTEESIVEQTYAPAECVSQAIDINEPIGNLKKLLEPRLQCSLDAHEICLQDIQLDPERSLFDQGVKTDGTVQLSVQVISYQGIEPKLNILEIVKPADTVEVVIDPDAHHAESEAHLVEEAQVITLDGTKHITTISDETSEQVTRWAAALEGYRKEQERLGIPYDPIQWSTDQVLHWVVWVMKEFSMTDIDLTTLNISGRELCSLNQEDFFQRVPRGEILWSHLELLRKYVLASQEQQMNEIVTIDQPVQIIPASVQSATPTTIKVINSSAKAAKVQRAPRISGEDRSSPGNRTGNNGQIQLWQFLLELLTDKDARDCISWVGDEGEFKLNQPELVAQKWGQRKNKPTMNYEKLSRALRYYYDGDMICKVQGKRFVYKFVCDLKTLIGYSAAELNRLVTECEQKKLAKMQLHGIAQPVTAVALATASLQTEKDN

The next test concerns the target T2, ETS1 (UniProt P14921).
T2 sequence: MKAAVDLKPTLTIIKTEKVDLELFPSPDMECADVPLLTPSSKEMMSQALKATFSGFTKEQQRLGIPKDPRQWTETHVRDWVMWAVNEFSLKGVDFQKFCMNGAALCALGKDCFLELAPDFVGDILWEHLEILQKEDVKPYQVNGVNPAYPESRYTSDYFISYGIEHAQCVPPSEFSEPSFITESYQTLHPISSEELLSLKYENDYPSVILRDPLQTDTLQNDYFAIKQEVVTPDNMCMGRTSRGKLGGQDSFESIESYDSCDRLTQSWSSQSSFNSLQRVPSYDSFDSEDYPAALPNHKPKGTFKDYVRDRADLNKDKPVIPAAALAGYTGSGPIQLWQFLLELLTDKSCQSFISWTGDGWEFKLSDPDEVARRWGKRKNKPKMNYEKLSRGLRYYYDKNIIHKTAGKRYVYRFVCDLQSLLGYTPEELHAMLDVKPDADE

A further test deals with T3, SPDEF (UniProt O95238).
T3 sequence: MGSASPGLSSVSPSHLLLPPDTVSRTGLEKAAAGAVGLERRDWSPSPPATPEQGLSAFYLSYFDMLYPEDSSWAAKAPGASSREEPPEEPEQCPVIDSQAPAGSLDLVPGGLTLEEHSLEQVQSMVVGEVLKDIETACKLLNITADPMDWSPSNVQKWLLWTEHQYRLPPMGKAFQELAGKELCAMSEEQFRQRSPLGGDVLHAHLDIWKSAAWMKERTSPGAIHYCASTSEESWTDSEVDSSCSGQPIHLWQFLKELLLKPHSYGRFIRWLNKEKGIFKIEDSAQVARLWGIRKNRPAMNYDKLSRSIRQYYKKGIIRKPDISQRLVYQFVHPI

The entries are a selection whose mix differs from that of the whole data set. For part of these data: At the low end of the ranking the order means little. The list shows a part of the results. For part of these data: The source does not settle which construct or isoform was used.

Regarding GTAACG, the binding signal was found to be 0.842 with GABPA, 0.887 in the test with ETS1 and 0.983 in the test with SPDEF.

With GACACG, the results for the binding signal in the test with GABPA, in the test with ETS1 and in the test with SPDEF were 0.728, 0.644 and 0.675, respectively.

On to CCAGTA, for which the values for the binding signal with GABPA, with ETS1 and with SPDEF were 0.667, 0.677 and 0.654, respectively.

For AGCGTG, the binding signal with GABPA was 0.373; with ETS1 it was 0.365; with SPDEF it was 0.331.

With CACGTC, the binding signal in the test with GABPA was 0.915; in the test with ETS1, 0.855; in the test with SPDEF it was 0.938.

Turning to GAGAAC, the results for the binding signal with GABPA, with ETS1 and with SPDEF were 0.413, 0.403 and 0.382, respectively.

Take GCCATA: the binding signal with GABPA stood at 0.984; with ETS1, 0.859; with SPDEF it was 0.959.

Consider GACCCT, for which the binding signal in the test with GABPA stood at 0.923; with ETS1, 0.87; with SPDEF, 0.93.

As for TCAGGT, the results for the binding signal with GABPA, with ETS1 and with SPDEF were 0.926, 0.91 and 0.92, respectively.

With GGGAGG, the binding signal stood at 0.31 with GABPA, 0.318 with ETS1 and 0.287 with SPDEF.

Take CGGGCC: the binding signal with GABPA was found to be 0.873; with ETS1 it was 0.724; with SPDEF, 0.752.

In the case of GACGCC, the binding signal in the test with GABPA worked out at 0.858; with ETS1, 0.815; in the test with SPDEF it was 0.868.

Turning to CGTGAA, the binding signal in the test with GABPA is 0.465; with ETS1, 0.451; in the test with SPDEF it was 0.452.

As for GAGATC, the values for the binding signal with GABPA, in the test with ETS1 and in the test with SPDEF were 0.48, 0.415 and 0.557, respectively.

For the sequence GCGGAG, the binding signal in the test with GABPA came out at 0.236; in the test with ETS1 it was 0.277; with SPDEF, 0.266.

As to ACGGAC, the binding signal with GABPA was 0.766; with ETS1, 0.889; with SPDEF, 0.945.

For the sequence GGGGTG, the binding signal with GABPA turned out to be 0.764; with ETS1 it was 0.729; with SPDEF it was 0.671.

TCGGGC: the binding signal was determined as 0.516 with GABPA, 0.496 in the test with ETS1 and 0.448 with SPDEF.

Consider AACGGG, for which the values for the binding signal with GABPA, with ETS1 and with SPDEF were 0.667, 0.681 and 0.66, respectively.

For ACGTCG, the binding signal in the test with GABPA worked out at 0.654; with ETS1 it was 0.702; with SPDEF, 0.637.

GGACGG: the binding signal is 0.48 with GABPA, 0.534 with ETS1 and 0.547 with SPDEF.

As to GGAGAC, the binding signal with GABPA, with ETS1 and in the test with SPDEF was 0.14 throughout.

For AGACAT, the binding signal in the test with GABPA stood at 0.82; with ETS1, 0.816; with SPDEF, 0.871.

For TCAGAA, the results for the binding signal in the test with GABPA, with ETS1 and with SPDEF were 0.984, 0.931 and 0.919, respectively.

Take GAGGTG: the binding signal was 0.506 with GABPA, 0.455 in the test with ETS1 and 0.523 with SPDEF.

Take TGCAGT: the binding signal in the test with GABPA is 0.881; with ETS1 it was 0.812; with SPDEF, 0.866.

Take CTGTCG: the values for the binding signal in the test with GABPA, with ETS1 and with SPDEF were 0.517, 0.559 and 0.562, respectively.

As to CCATCG, the binding signal in the test with GABPA was determined as 0.849; with ETS1, 0.842; in the test with SPDEF, 0.772.

AGGTAG: the figures for the binding signal with GABPA, with ETS1 and in the test with SPDEF were 0.689, 0.652 and 0.663, respectively.

For CAACGG, the binding signal in the test with GABPA stood at 0.959; with ETS1, 1.04; in the test with SPDEF, 0.931.

In the case of TCCAGG, the binding signal in the test with GABPA is 0.879; in the test with ETS1 it was 0.888; in the test with SPDEF, 0.823.

Consider ACGGCG, for which the binding signal turned out to be 0.81 with GABPA, 0.72 with ETS1 and 0.758 with SPDEF.

Turning to GACGAG, the binding signal with GABPA was found to be 0.555; with ETS1, 0.554; with SPDEF it was 0.566.

For the sequence GGGGAT, the binding signal was 0.681 with GABPA, 0.646 in the test with ETS1 and 0.653 with SPDEF.

Take GGAGTC: the figures for the binding signal with GABPA, with ETS1 and with SPDEF were 0.232, 0.237 and 0.22, respectively.

Take GTGGAC: the binding signal with GABPA stood at 0.919; in the test with ETS1, 0.935; with SPDEF it was 0.825.

For the origin of these results see paper PMC7862700.
